Data taken from paper PMC8708666 (International Journal of Molecular Sciences, 2021).
HELM strings list residues between dots; [ac] is acetyl, [am] amide, other brackets name non-standard units.

Assay: general procedure: Fmoc solid-phase peptide synthesis; 2-chlorotrityl chloride resin, loading 1.0 mmol/g; DMT/NMM/TosO- with NMM
Conditions: whole synthesis, HPLC, scale of the general procedure 1.0 mmol (1.0 g resin)

Row | Substance | purity (crude or final not stated)
1 | ^251GFPKGKKGSK^260 | 93%
2 | ^1451MRVGYTLVKH^1460 | 80%
3 | ^841PGKKGTRGKK^850 | 81%
4 | PEPTIDE1{G.P.P.G.S.I.V.K.K.G}$$$$V2.0 | 95%
5 | ^641PGQQGLPGSK^650 | 99%
6 | ^1221PGLRGQKGDR^1230 | 80%
7 | ^721LPGFPGLPGK^730 | 91%
8 | PEPTIDE1{G.F.Q.G.E.K.G.V.K.G}$$$$V2.0 | 98%
9 | ^541KGKKGEPILS^550 | 85%
10 | ^711GFPGPRGEKG^720 | 84%
11 | ^471LKGIKGDSGF^480 | 85%
12 | ^821GIKGKSGLPG^830 | 99%
13 | ^891LSGPKGEKGS^900 | 82%
14 | ^1101IGNIGFPGNK^1110 | 80%
15 | ^1311KGMRGEPGFM^1320 | 92%
16 | PEPTIDE1{D.P.G.F.P.G.M.K.G.K}$$$$V2.0 | 92%
17 | ^781PGLKGVHGKP^790 | 97%
18 | ^1211PGIGIGAPGK^1220 | 95%
19 | PEPTIDE1{N.K.E.S.G.F.P.G.L.R}$$$$V2.0 | 95%
20 | PEPTIDE1{L.A.P.G.S.F.K.G.M.K}$$$$V2.0 | 87%
21 | ^81PGLLGPYGPK^90 | 86%
22 | ^671PGFPGPKGSR^680 | 87%
23 | ^1521HYARRNDKSY^1530 | 82%
24 | ^41CFPEKGARGR^50 | 80%
25 | PEPTIDE1{K.G.A.R.G.D.R.G.S.G}$$$$V2.0 | 99%
26 | PEPTIDE1{F.K.G.T.K.G.R.D.G.L}$$$$V2.0 | 92%
27 | ^311GPPGQQGKKG^320 | 90%
28 | ^1661AGQLHTRVSR^1670 | 92%
29 | ^21AGEKSYGKPC^30 | 88%
